The list shows a part of the results. These are further read-outs of the screen, such as a control signal, another cell line or another target. No call is given for them. Most of these compounds were active or inconclusive in the main read-out, so they are no random draw. The note in brackets gives the kind of curve behind each potency; many fits are weak.
Assay: qHTS Assay to Find Inhibitors of Chronic Active B-Cell Receptor Signaling
Settings: ABC-DLBCL IkBa-CBG/CBR reporter, luminescence ratio (green luciferase fused to IkBa over red control in TMD8 lymphoma cells), 4 h
In short: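 Doxycycline induced both beetle luciferases in TMD8 lymphoma cells; IKK-driven degradation limits the IkappaBalpha-fused green signal, while red luminescence normalises for cell number and nonspecific effects. Compounds tested up to 46 uM, 4 hrs.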

[1] = measured here: CBR red luminescence, cell number
[2] = measured here: IkBa-CBG green luminescence

Cc1cc[n+](C2=C([O-])c3ccccc3C(=O)/C2=N\S(=O)(=O)c2cccs2)cc1C
AC50 [1]: 20.6 µM [falling, single point]

CN(C)c1ccc(NC2=C(Cl)C(=O)c3ccccc3C2=O)cc1
AC50 [1]: 20.6 µM [falling, single point]

C=C(C)c1cccc(C(C)(C)NC(=O)NNC(=O)c2ccccc2O)c1
AC50 [1]: 1.58 µM [rising, partial curve, poor fit]

Nc1nc(SCCO)[nH]c(=O)c1NC(=O)c1ccc(Br)o1
AC50 [1]: 20 µM [falling, single point]

CCOC(=O)C1CCCN(C(=O)c2cc(Nc3ccc(OC)c(OC)c3)nc3ccccc23)C1 (stereo not drawn)
AC50 [1]: 35.5 µM [falling, single point]

Cc1cc(C)nc(N2CCCC(C(=O)NCCc3cccc(F)c3)C2)n1 (stereo not drawn)
AC50 [1]: 6.51 µM [falling, partial curve, poor fit]

Cc1ccc2nc(-c3ccccn3)cc(C(=O)NC3CCN(C)CC3)c2c1
AC50 [1]: 0.116 µM [rising, full curve, poor fit]

CCCn1c2ccccc2c2cnn(CC(=O)N3CCN(c4ccccc4)CC3)c(=O)c21
AC50 [1]: 12.6 µM [rising, partial curve, poor fit]

COc1ccccc1Nc1ccc(Nc2ccccc2OC)nn1
AC50 [1]: 2.59 µM [falling, full curve]

O=C1CCc2cc(OCCCCc3nnnn3C3CCCCC3)ccc2N1
AC50 [1]: 9.2 µM [rising, partial curve] | AC50 [2]: 20.6 µM [falling, single point]

COc1ccc(-c2[nH]c(-c3ccccc3)nc2SCC(=O)Nc2nccs2)cc1
AC50 [1]: 18.4 µM [falling, single point]

CCOc1cc(C2c3c(n[nH]c3C)C(=O)N2c2ccc(Br)cc2)ccc1O (stereo not drawn)
AC50 [1]: 29.1 µM [falling, single point]

Cc1ccccc1C(=O)N1CCC(C(=O)Nc2ccc(S(=O)(=O)N3CCCCC3)cc2)CC1
AC50 [1]: 35.5 µM [falling, single point]

Cc1cccc(OCC(=O)Nc2cccc(-c3nnc(-c4ccccc4)o3)c2)c1C
AC50 [1]: 5.17 µM [rising, single point]

C=CCN(CC=C)CCOc1ccc(OC(C)C)cc1
AC50 [1]: 11.2 µM [rising, partial curve, poor fit]

C/C(=C\C(=S)Nc1ccccc1)Nc1ccc2ccccc2c1
AC50 [1]: 29.1 µM [falling, single point]

CCOC(=O)c1c(N)nn(C(C)=O)c1-c1ccccc1
AC50 [1]: 11.2 µM [falling, partial curve, poor fit]

CCOC(=O)/C=C/C(=O)Nc1ccccc1-c1ccccc1NC(=O)/C=C/C(=O)OCC
AC50 [1]: 29.1 µM [falling, single point] | AC50 [2]: 23.1 µM [rising, partial curve, poor fit]

Cc1ccc(N/C=C/C(=O)c2cccs2)cc1
AC50 [1]: 15.8 µM [falling, single point]

CN(CC(=O)Nc1ccccc1Br)C(=O)c1ccccc1-c1nc2ccccc2s1
AC50 [1]: 14.1 µM [rising, partial curve, poor fit]

CC(C(=O)NC(=O)NC1CCCCC1)N1CCN(c2ccc(O)cc2)CC1 (stereo not drawn)
AC50 [1]: 18.4 µM [rising, single point]

Cc1ccccc1/C=N/Nc1nc2ccccc2c(=O)n1O
AC50 [1]: 11.2 µM [falling, partial curve, poor fit]

Clc1ccc(-c2cn3cc(Br)ccc3n2)cc1Cl
AC50 [1]: 16.4 µM [falling, single point]

O=C(NCCc1ccccc1)C(=O)NCC1OCCCN1S(=O)(=O)c1cccs1 (stereo not drawn)
AC50 [1]: 35.5 µM [rising, single point]

CN(C)C(=O)N1CCC(C(=O)NCc2ccccc2)CC1
AC50 [1]: 2.06 µM [rising, full curve, poor fit]

COc1cc(/C=N/NC(=O)c2cccc(NC(=O)c3ccccc3C)c2)ccc1O
AC50 [1]: 25.1 µM [falling, single point]

O=C(Nc1ccc(Cl)cn1)c1ccc2c(c1)OCCO2
AC50 [1]: 7.08 µM [falling, partial curve]

Cc1ccc(C)c2[nH]c(=O)c(C(c3nnnn3Cc3ccco3)N3CCc4ccccc4C3)cc12 (stereo not drawn)
AC50 [1]: 14.1 µM [falling, partial curve, poor fit]

O=C(C1=C[C@@H](c2ccc(C(F)(F)F)cc2)C[C@@H](OCCCCO)O1)N1CCN(Cc2ccccc2)CC1
AC50 [1]: 3.98 µM [falling, partial curve]

CCNC(=S)N/N=C/c1ccc(F)cc1
AC50 [1]: 12.6 µM [rising, partial curve, poor fit] | AC50 [2]: 35.5 µM [falling, partial curve, poor fit]

O=C(Nc1nc(-c2ccccn2)cs1)c1ccc([N+](=O)[O-])o1
AC50 [1]: 35.5 µM [falling, single point]

O=C(Nc1ccccc1F)C1CCN(C(=O)Cc2ccccc2)CC1
AC50 [1]: 0.00461 µM [falling, full curve, poor fit]

O=C(CNC(=O)c1cccs1)c1ccc(Br)cc1
AC50 [1]: 11.2 µM [falling, partial curve]

COc1ccc(Cl)cc1C(=O)Nc1cccc(-c2ccc3nncn3n2)c1
AC50 [1]: 6.31 µM [falling, partial curve, poor fit]

COc1ccccc1N(CC(=O)Nc1ccc(Br)cc1F)S(=O)(=O)c1cccs1
AC50 [1]: 6.51 µM [falling, partial curve]

CS(=O)(=O)Nc1ccc(S(=O)(=O)NC2CCCCC2)cc1
AC50 [1]: 35.5 µM [rising, single point]

Cc1ccc(C)c(SCC(=O)Nc2nnc(-c3ccccc3)o2)c1
AC50 [1]: 5.17 µM [rising, partial curve, poor fit]

O=C(CCc1nc2ccccc2c(=O)[nH]1)NCc1cccc(Cl)c1
AC50 [1]: 29.1 µM [falling, single point]

Cc1ccc(/C=C2\SC(=S)N(c3c(C)n(C)n(-c4ccccc4)c3=O)C2=O)cc1
AC50 [1]: 11.2 µM [falling, partial curve]

COC(=O)c1cc(NC(=O)Cc2cc(OC)c(OC)c(OC)c2)cc(C(=O)OC)c1
AC50 [1]: 25.1 µM [falling, single point]
